# Measurements as given in PubChem BioAssay AID1347076 (National Center for Advancing Translational Sciences (NCATS), 2019).
# Among all 400,000 compounds or so, about 13,000 (3.2%) were called active. The shares of active, inactive and inconclusive entries below differ from those in the screen. The call rests on the fitted dose curve; in most records, active means well fitted cell-killing curve with a large enough effect; inconclusive means small, poorly fitted or top-dose-only effect, or effect the other way; inactive means flat fitted curve, though single readings scatter. Potencies of inconclusive entries are doubtful fits and often do not repeat.
# Assay: qHTS assay for MDR1-selective chemotherapeutics: Primary screen using the drug-selected MDR subline cells KB-V1; further: nearly all actives have a fitted effect of over 60% in size
# Settings: KB-V1 MDR cells viability, CellTiter-Glo, 72 h; activity change, negative = cytotoxicity: at 46.1 µM (top of the series)
# Method in brief: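 In this primary screen, KB-V1 cells overexpressing P-gp are incubated with library compounds (lowest to highest concentration) for 72 h at 37 degrees C before a luminescent ATP viability read.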
# On the % scale 0 is the no-effect control and ±100 the full control effect; potency means the concentration at half of the fitted maximal effect.
Structure (SMILES),Potency,"activity change, negative = cytotoxicity"
Cc1cc(C)n2nc(SCC(=O)Nc3cccc(C(F)(F)F)c3)nc2n1,active: 20.6 µM,–
COc1ccc(CCNC(=O)CC(=O)N/N=C\c2ccc(OCC(N)=O)cc2)cc1OC,"inconclusive: 0.82 µM [rising, full curve, poor fit]",–
Cc1ccc(C2NC(=O)NC3=C2CCc2ccccc23)cc1 (configuration not stated),"inconclusive: 23.1 µM [cytotoxic, single point]",–
Cc1cc2[nH]c(=O)c(=O)[nH]c2cc1S(=O)(=O)N(C)C1CCCCC1,inactive,–
Cc1ccc(C2NC(=O)c3ccccc3N2)s1 (configuration not stated),active: 7.31 µM,–
COCCSc1nnc(NC(=O)CSCc2ccccc2)s1,"inconclusive: 18.4 µM [cytotoxic, single point]",–
COc1cccc(-c2cc(C(=O)NCCc3ccccc3)no2)c1,"inconclusive: 20.6 µM [cytotoxic, partial curve, poor fit]",–
CCc1nc2c(OCC(=O)c3ccc(Cl)cc3Cl)cccn2c1N(C=O)Cc1ccc(OC)cc1,"inconclusive: 4.11 µM [cytotoxic, full curve, poor fit]",–
Cc1ccc(C2(c3ccccc3)NC(=O)N(CC(=O)NC3(C#N)CCCC3)C2=O)cc1C (configuration not stated),inactive,–
CC(=O)Nc1ccc(Oc2ccc3nc(C)[nH]c3c2)cc1,"inconclusive: 18.4 µM [rising, partial curve, poor fit]",–
CCc1ccccc1NC(=O)c1cnc2sc(N3CCOCC3)nn2c1=O,"inconclusive: 29.1 µM [cytotoxic, single point]",–
O=C(OCC(=O)N1CCN(C(=O)c2ccco2)CC1)c1cc(-c2cccc(Br)c2)nc2ccccc12,active: 16.4 µM,–
Cc1ccc(S(=O)(=O)Nc2nc3ccccc3nc2NCc2ccco2)cc1,"inconclusive: 16.4 µM [cytotoxic, partial curve, poor fit]",–
COc1ccc(-c2nnc(NC(=O)c3c(OC)cccc3OC)s2)cc1,"inconclusive: 20.6 µM [cytotoxic, partial curve, poor fit]",–
Cc1[nH]c2ccccc2c1SCc1nnc(SCc2ccc(Cl)cc2)n1C,inactive,–
COc1cc(/C=C/C(=O)c2c(O)cc(C)oc2=O)cc(OC)c1O,"inconclusive: 25.9 µM [cytotoxic, single point]",–
CC(=O)Nc1ccc(S(=O)(=O)N2CCCc3ccccc32)cc1,"inconclusive: 3.66 µM [cytotoxic, full curve, poor fit]",–
COc1ccc(-c2csc(N3N=C(C)C(C)C3=O)n2)cc1 (configuration not stated),"inconclusive: 16.4 µM [cytotoxic, single point]",–
Cc1ccc(S(=O)(=O)Nc2cccc(-c3ccc4nncn4n3)c2)cc1,active: 16.4 µM,–
CCOC(=O)c1c(-c2ccc(OC)cc2)csc1NC(=O)CSc1ncnc2sccc12,inactive,–
Cc1nnn(C23CC4CC(CC(CC(=O)Nc5ccc(C)c(Cl)c5)(C4)C2)C3)n1,active: 7.31 µM,–
COc1ccc(-c2sc(Nc3ccccc3)n[n+]2-c2ccc(F)cc2)cc1Br,"inconclusive: 9.2 µM [rising, single point]",–
COc1ccc2cc(/C=C3\SC(=S)NC3=O)c(N3CCOCC3)nc2c1,"inconclusive: 29.1 µM [cytotoxic, single point]",–
CN(Cc1ccccc1)Cc1nc2scc(-c3ccccc3)c2c(=O)[nH]1,inactive,–

# Part of the list above in a different format.
Structure (SMILES) | Potency | activity change, negative = cytotoxicity
COCCSc1nnc(NC(=O)CSCc2ccccc2)s1 | inconclusive: 18.4 µM [cytotoxic, single point] | –
COc1cccc(-c2cc(C(=O)NCCc3ccccc3)no2)c1 | inconclusive: 20.6 µM [cytotoxic, partial curve, poor fit] | –
CCc1nc2c(OCC(=O)c3ccc(Cl)cc3Cl)cccn2c1N(C=O)Cc1ccc(OC)cc1 | inconclusive: 4.11 µM [cytotoxic, full curve, poor fit] | –

# (listing goes on)

Structure (SMILES),Potency,"activity change, negative = cytotoxicity"
O=S(=O)(c1ccc(Nc2ccc(-c3ccc4c(c3)OCCO4)nn2)cc1)N1CCCC1,"inconclusive: 6.51 µM [cytotoxic, single point]",–
CCOC(=O)C1(C)NC(c2ccc(N(C)C)cc2)C2C(=O)N(CC)C(=O)C21 (configuration not stated),inactive,–
O=C(NCc1ccccc1Cl)c1cnc2sc(N3CCCCC3)nn2c1=O,inactive,–
O=C(COC(=O)c1ccccc1Br)Nc1cccnc1Cl,"inconclusive: 23.1 µM [rising, single point]",–
O=C1NC(Cc2ccc(O)cc2)c2nc3ccc(Cl)cc3c(=O)n2-c2cc3ccccc3cc21 (configuration not stated),"inconclusive: 25.9 µM [cytotoxic, single point]",–
CC[n+]1ccc(C[n+]2ccccc2)c2ccccc21,inactive,–
COc1ccc(N2C(=O)CC(Cc3ccccc3)C2=O)cc1 (configuration not stated),"inconclusive: 18.4 µM [rising, single point]",–
Cc1nc2c(n1C1CCCCC1)C(=O)c1ccccc1C2=O,"inconclusive: 7.31 µM [cytotoxic, partial curve]",–
CCOc1cc(CNCCO)cc(Br)c1OCc1ccccc1Cl,active: 23.1 µM,–
COc1ccc(CN2C(=O)C(CC(=O)NCC3CCCCC3)CC(C(=O)N(C)C)=C2C)cc1 (configuration not stated),"inconclusive: 20.6 µM [cytotoxic, single point]",–
CCn1cc(C2=NOC(C(=O)Nc3ccccc3C(=O)OC)C2)c(C)n1 (configuration not stated),active: 10.3 µM,–
CSc1cccc(NC(=O)C2C3C=CC4(O3)C2C(=O)N(CCN2CCOCC2)C4C(=O)NC2CCCCC2)c1 (configuration not stated),"inconclusive: 3.66 µM [rising, partial curve, poor fit]",–
CSc1nnnn1-c1ccc(C)c(Cl)c1,"inconclusive: 29.1 µM [cytotoxic, single point]",–
COc1ccc(C2CC(c3ccc(Br)cc3)=NN2C(=O)c2cccnc2)cc1 (configuration not stated),"inconclusive: 5.17 µM [cytotoxic, full curve, poor fit]",–
Cc1ccc[n+](C(C(=S)NCc2ccco2)=C([O-])c2ccccc2Cl)c1,active: 20.6 µM,–
CCOC(=O)[C@]12CCC=C1N(Cc1cccc3ccccc13)C(=O)[C@H](CC(=O)NCCCOC)C2,inactive,–
CCOC(=O)c1ccc(CNc2ncnc3nc[nH]c23)cc1,inactive,–
CCOC(=O)c1c(NC(=O)CSc2nnc(C)s2)sc2c1CCC(C)C2 (configuration not stated),active: 10.3 µM,–
COc1ccc(CCN(C)C(=O)CNC(=O)Cc2cccc3ccccc23)cc1OC,"inconclusive: 29.1 µM [cytotoxic, single point]",–
CCOc1ccc(N2C(=O)c3ccc(C(=O)OCC(=O)N(CC)C4CCS(=O)(=O)C4)cc3C2=O)cc1 (configuration not stated),"inconclusive: 25.9 µM [rising, single point]",–
COc1ccc(/C=C/C(=O)c2ccc3c4c(cccc24)CC3)cc1,"inconclusive: 8.2 µM [cytotoxic, partial curve, poor fit]",–
Cc1ccc(CN(C)C(=O)c2ccccc2Oc2ccccc2)o1,active: 20.6 µM,–
CCc1ccc(N(CC)C(=O)Cn2c(=O)oc3ccccc32)cc1,inactive,–
O=c1c(/C=N/N2CCOCC2)c(C(F)(F)F)[nH]n1-c1ccccc1,inactive,–

Structure (SMILES),Potency,"activity change, negative = cytotoxicity"
COc1ccc(/C=C(/NC(=O)c2ccc(OC)c(OC)c2)C(=O)NCCCn2ccnc2)cc1,"inconclusive: 0.651 µM [rising, full curve, poor fit]",–
CN(C)c1ccc(/C=C/c2ccc3ccccc3[n+]2[O-])cc1,"inconclusive: 29.1 µM [cytotoxic, single point]",–
CSc1nc(-c2ccc(C)cc2)nc(N)c1C#N,"inconclusive: 29.1 µM [cytotoxic, single point]",–
COc1cccc2cc(C(=O)NCCc3c(C)[nH]c4ccc(Br)cc34)c(=O)oc12,inactive,–
C=CCc1ccc(OCCOc2cccc3ccc(C)nc23)c(OC)c1,"inconclusive: 14.6 µM [cytotoxic, partial curve]",–
CCC(C)OC(=O)C1=C(C)NC(=O)CC1c1ccccc1OC (configuration not stated),"inconclusive: 9.2 µM [cytotoxic, partial curve]",–
O=C(COc1ccc2c(c1)CCC2)Nc1ccccn1,inactive,–
O=C(NC(=S)Nc1ccc(Br)cc1)C1CCC1,inactive,–
O=[N+]([O-])c1ccc2nc(-c3ccccc3)[nH]c2c1,inactive,–
CC(C)(C)OC(=O)N1CCC(CNC(=O)c2ccccc2)CC1,"inconclusive: 3.66 µM [cytotoxic, partial curve]",–
CCc1nc(N2CCCCC2C)c2oc3ccccc3c2n1 (configuration not stated),active: 7.31 µM,–
CC(=O)c1cccc(NC(=O)CCS(=O)(=O)c2ccc(Br)s2)c1,"inconclusive: 0.366 µM [rising, full curve]",–
O=C(CN1C(=O)CC(c2ccccc2)Sc2ccccc21)Nc1cccc(Cl)c1 (configuration not stated),active: 20.6 µM,–
CCOCCn1ccc2c(OCC(=O)Nc3ccc(OC(F)(F)F)cc3)cccc2c1=O,inactive,–
Cc1ccc2c(CC(=O)NC3CCS(=O)(=O)C3)coc2c1C (configuration not stated),"inconclusive: 16.4 µM [rising, single point]",–
Cc1[nH]c2ccc(C(=O)N3CCCC3)cc2c1C,–,inconclusive: 34.5%
N#CC1=C(SCC(=O)c2ccccc2)NC2=C(C(=O)CCC2)C1c1ccco1 (configuration not stated),"inconclusive: 29.1 µM [cytotoxic, single point]",–
CCOC(=O)C1(C)CCCN(C(=O)c2cccc(OC(F)(F)F)c2)C1 (configuration not stated),"inconclusive: 29.1 µM [cytotoxic, single point]",–
Cc1cccc(N2CCN(C(=O)c3c(Cl)cnn3C)CC2)c1C,"inconclusive: 18.4 µM [cytotoxic, single point]",–
CCn1nc(-c2ccccc2C)nc2c(=O)n(C)c(=O)nc1-2,"inconclusive: 29.1 µM [cytotoxic, single point]",–
COc1cc(-c2cnc3c(NC=O)cc(-c4cccc(C(=O)NCCN(C)C)c4)cn23)cc(OC)c1OC,inactive,–
COc1ccc(/C=C/C(=O)Nc2nc3n(n2)C(c2ccccc2)C=C(c2ccccc2)N3)cc1 (configuration not stated),inactive,–
CCN(C(=O)Cn1c(=O)oc2cc(Cl)ccc21)c1cccc(C(F)(F)F)c1,"inconclusive: 20.6 µM [cytotoxic, single point]",–
Fc1ccc(-c2nc3ccc(Cl)cn3c2Cc2cccc(Cl)c2)cc1,inactive,–
